Reference: paper PMC5550455, “Unusual Inner-Salt Guaiazulene Alkaloids and bis-Sesquiterpene from the South China Sea Gorgonian Muriceides collaris” (Scientific Reports, 2017)

Test system: larvae of the barnacle Balanus albicostatus
Assay: Antifouling assay, barnacle larval settlement and mortality
Type: in vivo, Balanus albicostatus Pilsbry
Description: The antifouling activity of compounds 1–6 against larval of the barnacle Balanus albicostatus Pilsbry were determined according to the literature. EC50 was calculated as the concentration where 50% of the larval population was inhibited to settle as compared to the control while LC50 was calculated as the concentration where 50% of the larval population was dead. Experiments were repeated three times and carried out in triplicate.

Row | SMILES | therapeutic index LC50/EC50
1 | Cc1cc(/C=C2\CCCN=C2C(=O)O)c2c(C)ccc(C(C)C)cc1-2 [compound 1, Muriceidine A] | 3.66
2 | Cc1cc(C=O)c2c(C)ccc(C(C)C)cc1-2 [compound 6, 3-formyl guaiazulene] | 2.60
